Data taken from article PMC12752627, “Discovery of a Potent and Selective TEAD Degrader with Durable Degradation Activity” (Advanced Science, 2025).
The source gives many values for each of these; only a part stands here.

Test system: 867 cancer cell lines
Test: PRISM assay (barcoded cell line screening, 5 days);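 also: top test concentration 10 mM in eight-point dilution series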
Type: cell-based
Set-up: scale not given here
Protocol: The principle of the PRISM assay has been described elsewhere and was conducted as previously outlined by the PRISM team at the Broad Institute.^[ [14], [31] ^] In PRISM (MTS027) experiments, KG‐FP‐003 was tested across 867 different cancer cell lines. Cells were treated with eight concentration gradients, ranging from 4.6 nM to […], in triplicate dilutions over a period of five days. Each plate was treated with 20 µM bortezomib as a positive control and DMSO as a negative control. Three replicate experiments were performed for each compound. The resulting data were analyzed using GraphPad PRISM 9.5.

Structure (SMILES): CNC(=O)c1cc2c(c(F)c1-c1c(Cl)c(F)cc3c1C[C@@](CN[C@H]1CC[C@H](C(=O)N4CCC(CC5CCN(C(=O)COc6ccc(N7CCC(=O)NC7=O)c(C)c6)CC5)CC4)CC1)(c1ccccc1)O3)[C@@H](O)[C@@H](C)C2 [KG-FP-003]
- KG-FP-003-AUC (H157_UPPER_AERODIGESTIVE_TRACT ACH-001347 PR300): 0.66
- KG-FP-003-AUC (H357_UPPER_AERODIGESTIVE_TRACT ACH-001509 PR300): 0.63
- KG-FP-003-AUC (H376_UPPER_AERODIGESTIVE_TRACT ACH-001510 PR300): 0.75
- KG-FP-003-AUC (H413_UPPER_AERODIGESTIVE_TRACT ACH-001511 PR300): 1.00
- KG-FP-003-AUC (HA1E_KIDNEY ACH-001310 PR300): 0.61
- KG-FP-003-AUC (HAC2_OVARY ACH-001512 PR300): 0.63
- KG-FP-003-AUC (HARA_LUNG ACH-000843 PR500): 0.77
- KG-FP-003-AUC (HCA1_CERVIX ACH-001513 PR300): 0.88
- KG-FP-003-AUC (HCC15_LUNG ACH-000878 PR500): 0.92
- KG-FP-003-AUC (HCC38_BREAST ACH-000276 PR500): 0.85
- KG-FP-003-AUC (HCC44_LUNG ACH-000667 PR500): 0.49
- KG-FP-003-AUC (HCC56_LARGE_INTESTINE ACH-000467 PR500): 0.99
- KG-FP-003-AUC (HCC78_LUNG ACH-000562 PR500): 0.78
- KG-FP-003-AUC (HCC95_LUNG ACH-000454 PR500): 0.95
- KG-FP-003-AUC (HCC515_LUNG ACH-000872 PR300): 0.81
- KG-FP-003-AUC (HCC827_LUNG ACH-000012 PR500): 0.81
- KG-FP-003-AUC (HCC1143_BREAST ACH-000374 PR500): 0.92
- KG-FP-003-AUC (HCC1195_LUNG ACH-000868 PR500): 0.98
- KG-FP-003-AUC (HCC1359_LUNG ACH-000901 PR500): 0.96
- KG-FP-003-AUC (HCC1395_BREAST ACH-000699 PR300): 0.99
- KG-FP-003-AUC (HCC1419_BREAST ACH-000277 PR500): 1.00
- KG-FP-003-AUC (HCC1428_BREAST ACH-000352 PR500): 0.96
- KG-FP-003-AUC (HCC1438_LUNG ACH-000891 PR500): 0.89
- KG-FP-003-AUC (HCC1806_BREAST ACH-000624 PR500): 0.88
- KG-FP-003-AUC (HCC1937_BREAST ACH-000223 PR500): 0.97
- KG-FP-003-AUC (HCC1954_BREAST ACH-000859 PR300): 0.95
- KG-FP-003-AUC (HCC4006_LUNG ACH-000066 PR500): 0.63
- KG-FP-003-AUC (HCSC1_CERVIX ACH-001516 PR300): 0.99
- KG-FP-003-AUC (HCT15_LARGE_INTESTINE ACH-000997 PR500): 1.00
- KG-FP-003-AUC (HCT116_LARGE_INTESTINE ACH-000971 PR500): 0.88
- KG-FP-003-AUC (HDMB03_CENTRAL_NERVOUS_SYSTEM ACH-001349 PR300): 0.99
- KG-FP-003-AUC (HDQP1_BREAST ACH-000643 PR500): 0.72
- KG-FP-003-AUC (HEC1A_ENDOMETRIUM ACH-000954 PR500): 0.55
- KG-FP-003-AUC (HEC1B_ENDOMETRIUM ACH-000941 PR500): 0.91
- KG-FP-003-AUC (HEC1_ENDOMETRIUM ACH-001517 PR300): 0.98
- KG-FP-003-AUC (HEC6_ENDOMETRIUM ACH-000984 PR500): 0.96
- KG-FP-003-AUC (HEC50B_ENDOMETRIUM ACH-000831 PR300): 0.94
- KG-FP-003-AUC (HEC59_ENDOMETRIUM ACH-000994 PR500): 0.72
- KG-FP-003-AUC (HEC108_ENDOMETRIUM ACH-000990 PR500): 0.53
- KG-FP-003-AUC (HEC116_ENDOMETRIUM ACH-001518 PR300): 0.70
- KG-FP-003-AUC (HEC151_ENDOMETRIUM ACH-000972 PR500): 0.63
- KG-FP-003-AUC (HEC251_ENDOMETRIUM ACH-000996 PR500): 0.63
- KG-FP-003-AUC (HEC265_ENDOMETRIUM ACH-000946 PR500): 0.68
- KG-FP-003-AUC (HEL9217_HAEMATOPOIETIC_AND_LYMPHOID_TISSUE ACH-000005 PR300): 0.88
- KG-FP-003-AUC (HEL_HAEMATOPOIETIC_AND_LYMPHOID_TISSUE ACH-000004 PR300): 0.83
- KG-FP-003-AUC (HEP3B217_LIVER ACH-000625 PR500): 0.99
- KG-FP-003-AUC (HEPG2_LIVER ACH-000739 PR300): 0.80
- KG-FP-003-AUC (HEYA8_OVARY ACH-000542 PR500): 0.77
- KG-FP-003-AUC (HGC27_STOMACH ACH-000847 PR500): 1.00
- KG-FP-003-AUC (HH_HAEMATOPOIETIC_AND_LYMPHOID_TISSUE ACH-000061 PR300): 0.89
- KG-FP-003-AUC (HKA1_SKIN ACH-001521 PR300): 1.00
- KG-FP-003-AUC (HKGZCC_BILIARY_TRACT ACH-001852 PR300): 0.94
- KG-FP-003-AUC (HLF_LIVER ACH-000393 PR500): 1.00
- KG-FP-003-AUC (HMC18_BREAST ACH-000721 PR500): 0.94
- KG-FP-003-AUC (HOS_BONE ACH-000613 PR300): 0.58
- KG-FP-003-AUC (HOS_BONE ACH-000613 PR500): 0.53
- KG-FP-003-AUC (HOTHC_THYROID ACH-002041 PR300): 0.85
- KG-FP-003-AUC (HPAC_PANCREAS ACH-000270 PR500): 0.88
- KG-FP-003-AUC (HPAFII_PANCREAS ACH-000094 PR300): 0.79
- KG-FP-003-AUC (HPBALL_HAEMATOPOIETIC_AND_LYMPHOID_TISSUE ACH-000942 PR300): 0.96
- KG-FP-003-AUC (HS294T_SKIN ACH-000014 PR500): 0.86
- KG-FP-003-AUC (HS611T_HAEMATOPOIETIC_AND_LYMPHOID_TISSUE ACH-000069 PR300): 0.94
- KG-FP-003-AUC (HS683_CENTRAL_NERVOUS_SYSTEM ACH-000067 PR300): 0.98
- KG-FP-003-AUC (HS729_SOFT_TISSUE ACH-000133 PR300): 0.59
- KG-FP-003-AUC (HS729_SOFT_TISSUE ACH-000133 PR500): 0.39
- KG-FP-003-AUC (HS766T_PANCREAS ACH-000178 PR500): 1.00
- KG-FP-003-AUC (HS852T_SKIN ACH-000274 PR500): 0.86
- KG-FP-003-AUC (HS939T_SKIN ACH-000814 PR500): 1.00
- KG-FP-003-AUC (HS944T_SKIN ACH-000632 PR500): 0.99
- KG-FP-003-AUC (HSC1_SKIN ACH-001523 PR300): 0.85
- KG-FP-003-AUC (HSC2_UPPER_AERODIGESTIVE_TRACT ACH-000472 PR500): 0.56
- KG-FP-003-AUC (HSC3_UPPER_AERODIGESTIVE_TRACT ACH-000778 PR500): 0.73
- KG-FP-003-AUC (HSC5_SKIN ACH-001524 PR300): 0.79
- KG-FP-003-AUC (HSKTC_OVARY ACH-002038 PR300): 0.91
- KG-FP-003-AUC (HT3_CERVIX ACH-001525 PR300): 0.99
- KG-FP-003-AUC (HT29_LARGE_INTESTINE ACH-000552 PR500): 0.99
- KG-FP-003-AUC (HT55_LARGE_INTESTINE ACH-000926 PR500): 1.00
- KG-FP-003-AUC (HT115_LARGE_INTESTINE ACH-000986 PR300): 1.00
- KG-FP-003-AUC (HT144_SKIN ACH-000322 PR500): 0.99
- KG-FP-003-AUC (HT1080_SOFT_TISSUE ACH-000054 PR500): 0.45
- KG-FP-003-AUC (HT1197_URINARY_TRACT ACH-000547 PR300): 0.99
- KG-FP-003-AUC (HT1376_URINARY_TRACT ACH-000724 PR500): 0.47
- KG-FP-003-AUC (HTMMT_ENDOMETRIUM ACH-002046 PR300): 0.56
- KG-FP-003-AUC (HT_HAEMATOPOIETIC_AND_LYMPHOID_TISSUE ACH-000914 PR300): 0.84
- KG-FP-003-AUC (HUCCT1_BILIARY_TRACT ACH-000976 PR500): 0.41
- KG-FP-003-AUC (HUG1N_STOMACH ACH-000239 PR300): 0.83
- KG-FP-003-AUC (HUH1_LIVER ACH-000475 PR300): 0.99
- KG-FP-003-AUC (HUH6_LIVER ACH-000671 PR500): 0.89
- KG-FP-003-AUC (HUH7_LIVER ACH-000480 PR500): 0.80
- KG-FP-003-AUC (HUH28_BILIARY_TRACT ACH-000808 PR500): 0.66
- KG-FP-003-AUC (HUO9_BONE ACH-001526 PR300): 0.98
- KG-FP-003-AUC (HUPT3_PANCREAS ACH-000118 PR500): 0.60
- KG-FP-003-AUC (HUPT4_PANCREAS ACH-000213 PR300): 0.55
- KG-FP-003-AUC (HUT78_HAEMATOPOIETIC_AND_LYMPHOID_TISSUE ACH-000509 PR300): 0.99
- KG-FP-003-AUC (IALM_LUNG ACH-000672 PR500): 0.84
- KG-FP-003-AUC (ICC4_BILIARY_TRACT ACH-001844 PR300): 0.99
